Screen size: about 390,000 compounds; about 760 (0.19%) were called active. Inconclusive results, whose numbers are uncertain, are shown with a selection of clear calls. Calls come from the whole dose curve; as a rule, active = well fitted inhibition curve with a large enough effect; inconclusive = small, poorly fitted or top-dose-only effect; inactive = flat fitted curve, though single readings scatter. Potencies of inconclusive entries are doubtful fits and often do not repeat.
Experiment: qHTS for Inhibitors of Vif-A3F Interactions: qHTS; note: nearly all actives have a fitted effect of over 65% in size; for activity, negative = active: % of control where 0% means no effect
Conditions: HeLa A3F-eYFP + Vif (tagged APOBEC3F with the HIV-1 protein that degrades it), YFP fluorescence increase; series mostly up to 46.1 µM; activity, negative = active: at the top concentration
Method in brief: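 Fluorescence increase (Ex 488/Em 500-530) after overnight compound treatment at 37 deg C flags inhibition of Vif-driven A3F-eYFP loss in stable HeLa A3F-eYFP/Vif cells seeded overnight beforehand.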
Potency is the fitted concentration of half-maximal effect.

Row | Structure (SMILES) | Potency | activity, negative = active
1 | O=C1C=CC(=O)C2C1C1(Cl)C(Cl)=C(Cl)C2(Cl)C1(Cl)Cl (centres undefined) | inconclusive: 35.5 µM [inhibitor, single point] | 
2 | CC1(C(=O)O)CCCC2(C)c3cc(O)ccc3CCC12 (centres undefined) |  | inactive: 3.23%
3 | C=C(CC1CC(O)[C@]2(C)OC3CC4OC5C[C@]6(C)O[C@]7(C)CCC8OC9C[C@]%10(C)OC%11C(C)=CC(=O)OC%11CC%10OC9C[C@@H](C)C8OC7CC6O[C@]5(C)C/C=C\C4OC3CC2O1)C(=O)O (some centres undefined) |  | inactive: 10.7%
4 | C[C@H](CO)N1C[C@H](C)[C@H](CN(C)C(=O)Oc2ccccc2)OCc2cnnn2CCCC1=O |  | inactive: -0.588%
5 | CC(C)C(=O)Nc1nnc(CCN(CCc2nnc(NC(=O)C(C)C)s2)[N+](=O)[O-])s1 |  | inactive: 9.54%
6 | Cc1cc(N(CCCl)CCCl)ccc1C=Cc1ccncn1 | active: 25.1 µM | 
7 | Cc1cc(/C=C2\C(=O)NC(=O)N(c3cccc(Br)c3)C2=O)c(C)n1C | inconclusive: 20 µM [inhibitor, partial curve, poor fit] | 
8 | COc1cc(/C=C/c2nc3ccccc3c(=O)n2-c2cccc(O)c2)ccc1O | inconclusive: 11.2 µM [inhibitor, partial curve, poor fit] | 
9 | O=[N+]([O-])c1ccc(CNCCc2ccccc2)cc1 | inconclusive: 6.31 µM [inhibitor, single point] | 
10 | CCCCOC(=O)CCN1C(=O)/C(=C2\SC(=S)N(CCC(=O)OCCCC)C2=O)SC1=S | inconclusive: 20 µM [inhibitor, partial curve, poor fit] | 
11 | CN1CCc2nc3ccc(F)cc3c(C(N)=O)c2C1 |  | inactive: -3.97%
12 | CCCCn1c(N)c(N(CC(C)C)C(=O)c2cc(Br)c(Br)s2)c(=O)[nH]c1=O | active: 25.1 µM | 
13 | Cc1ccc(Cl)cc1Nc1nn2c(=O)c3ccc(C(=O)NCc4cccs4)cc3nc2s1 | inconclusive: 7.08 µM [inhibitor, full curve, poor fit] | 
14 | COc1ccc2c(c1)c(C(=O)O)c(C)n2CC(C)C |  | inactive: 5.33%
15 | CCCCCOc1ccc(C)cc1CN(CCCl)CCCl |  | inactive: 3.68%
16 | COc1ccc(/C=C2/C(=O)NC(=O)N(c3ccc(C)c(C)c3)C2=O)cc1CN1C(=O)c2ccccc2C1=O |  | inactive: -12.1%
17 | CC(=NCCc1ccccc1)c1c(O)n(C)c(=O)n(C)c1=O | inconclusive: 35.5 µM [inhibitor, single point] | 
18 | Cc1nn(Cc2ccccc2)c(C)c1C=C1C(=O)NC(=O)NC1=O | inconclusive: 35.5 µM [inhibitor, partial curve, poor fit] | 
19 | CCCCn1c(=O)c(C(=O)Nc2ccsc2C(=O)OC)c(O)c2ccccc21 | inconclusive: 1.26 µM [inhibitor, partial curve, poor fit] | 
20 | O=C1NC(=O)N(Cc2ccc(F)cc2)C(=O)/C1=C\c1ccoc1 | active: 25.1 µM | 
21 | COc1ccc2c(c1)c(CCN)c(C)n2Cc1ccccc1 |  | inactive: -14.4%
22 | Cc1cccc(-n2c(O)c(/C=C/C=Nc3ccccc3)c(=O)[nH]c2=O)c1 | active: 10 µM | 
23 | Oc1cc(Cl)c(Cl)c(Cl)c1Cl |  | inactive: -11.2%

Row | Structure (SMILES) | Potency | activity, negative = active
24 | O=C1NC(=O)C(=Cc2ccc(-c3cc(Cl)ccc3[N+](=O)[O-])o2)C(=O)N1 | inconclusive: 5.62 µM [inhibitor, partial curve, poor fit] | 
25 | Cn1cccc1/C=C1\C(=O)NC(=O)N(Cc2ccccc2Cl)C1=O | active: 11.2 µM | 
26 | O=C1NC(=O)N(c2ccc(Cl)cc2)C(=O)/C1=C\c1ccc(Sc2nc3ccccc3[nH]2)o1 | inconclusive: 22.4 µM [inhibitor, partial curve, poor fit] | 
27 | O=c1[nH]c(=O)n(Cc2ccccc2)c(O)c1C=NCCCO |  | inactive: -10.9%
28 | CCCC(C)C1(CC)C(=O)NC(=Nc2ccc(OC)cc2)NC1=O (centres undefined) | inconclusive: 0.562 µM [inhibitor, full curve, poor fit] | 
29 | CC1(C)OC1COc1c2occc2cc2ccc(=O)oc12 (centres undefined) |  | inactive: -0.659%
30 | Cc1cc(C)cc(N2C(=O)/C(=C\c3ccc(N4CCN(C)CC4)o3)C(=O)NC2=S)c1 | inconclusive: 20 µM [inhibitor, partial curve, poor fit] | 
31 | C#C[C@]1(O)CC[C@H]2[C@@H]3CCC4=Cc5nc6nc7ccccc7n6cc5C[C@]4(C)[C@H]3CC[C@@]21C | inconclusive: 35.5 µM [inhibitor, single point] | 
32 | CN1CCN(c2ccc([N+](=O)[O-])c3no[n+]([O-])c23)CC1 | inconclusive: 25.1 µM [inhibitor, partial curve, poor fit] | 
33 | CCCCCn1c(=O)c(C(=O)Nc2ccccc2S(N)(=O)=O)c(O)c2ccccc21 | inconclusive: 8.91 µM [inhibitor, partial curve, poor fit] | 
34 | CN(C)C(=O)Oc1ccc2c(c1)O/C(=C\c1ccc(Cl)cc1)C2=O |  | inactive: 3.42%
35 | COc1ccc(-n2c(O)c(/C=C3\C=Nc4ccc(Br)cc43)c(=O)[nH]c2=O)cc1 | inconclusive: 3.16 µM [inhibitor, single point] | 
36 | CC(C)c1ccc(Cc2cn3cc(-c4cc5ccccc5oc4=O)nc3s2)cc1 | inconclusive: 17.8 µM [inhibitor, partial curve, poor fit] | 
37 | Cc1nn(Cc2ccccc2)c(C)c1C=C1C(=O)NC(=S)NC1=O |  | inactive: 3.08%
38 | CC(C)(C)c1ccc(O)c(N=Cc2c(O)ccc3ccccc23)c1 | inconclusive: 35.5 µM [inhibitor, single point] | 
39 | CCCCN1C(=O)/C(=C/c2ccc(N(C)C)cc2)C(=O)N(Cc2ccco2)C1=O | inconclusive: 31.6 µM [inhibitor, single point] | 
40 | c1ccc2c(c1)cc1ccc3cccc4ccc2c1c34 | inconclusive: 4.47 µM [inhibitor, partial curve] | 
41 | CCOP(=O)(OCC)C(NC(=O)Cc1ccccc1)C(Cl)(Cl)Cl (centres undefined) | inconclusive: 0.562 µM [inhibitor, full curve, poor fit] | 
42 | Cc1cc(C=C(C#N)C#N)ccc1N1CCCC1 | inconclusive: 22.4 µM [inhibitor, single point] | 
43 | O=c1[nH]c(=O)n(-c2ccc(F)cc2)c(O)c1C=Nc1ccccc1N1CCCC1 | inconclusive: 20 µM [inhibitor, partial curve, poor fit] | 
44 | N#CC1c2ccccc2-n2nncc2CN1Cc1cc(Cl)cc(Cl)c1 (centres undefined) |  | inactive: 0.954%
45 | Cn1c(O)c(/C=C/C=Nc2ccccc2)c(=O)n(C)c1=S | inconclusive: 28.2 µM [inhibitor, single point] | 
46 | COc1ccc(/C=C2\Oc3cc(OC(=O)N4CCOCC4)ccc3C2=O)c(OC)c1 | active: 25.1 µM | 

Row | Structure (SMILES) | Potency | activity, negative = active
47 | COc1ccccc1Cn1c(SCC#N)nc2cc(C(=O)N3CCC4(CC3)OCCO4)ccc2c1=O | inconclusive: 0.562 µM [inhibitor, full curve, poor fit] | 
48 | Cc1cccc(CN2CCCC(C(=O)c3ccc(C(F)(F)F)cc3)C2)n1 (centres undefined) | inconclusive: 35.5 µM [inhibitor, single point] | 
49 | O=C(COc1ccc(Br)cc1)N1CCN(Cc2ccc3c(c2)OCO3)CC1 |  | inactive: 5.82%
50 | Cc1cccc2sc(NC(=O)c3cccn(Cc4ccccc4)c3=O)nc12 | inconclusive: 22.4 µM [inhibitor, single point] | 
51 | CCc1ccc(/C=C(/C#N)C(N)=S)cc1 |  | inactive: 9.63%
52 | CC(=O)NC1C(OC(=O)Cc2ccccc2)OC(COC(C)=O)C(OC(C)=O)C1OC(C)=O (centres undefined) | inconclusive: 35.5 µM [inhibitor, single point] | 
53 | COC(=O)C1=C(c2cccc(OCc3ccccc3)c2)C[C@@H]2CC[C@H]1N2C(=O)NCc1ccc2[nH]ccc2c1 |  | inactive: 5.15%
54 | Clc1ccccc1CNc1nc2ccccc2n2cnnc12 | inconclusive: 35.5 µM [inhibitor, single point] | 
55 | Cn1ncnc2c(=O)n(C)c(=O)nc1-2 |  | inactive: 0.56%
56 | O=C1NC(=O)N(CCc2ccc(F)cc2)C(=O)/C1=C/c1ccco1 | inconclusive: 35.5 µM [inhibitor, single point] | 
57 | CC1(C)OC(c2ccccc2)=C/C(=C/C=C2C(=O)NC(=S)NC2=O)O1 | inconclusive: 3.55 µM [inhibitor, partial curve, poor fit] | 
58 | COc1ccccc1CN1CCN(Cc2ccc(Cl)cc2)CC1 |  | inactive: 1.6%
59 | CCOc1ccc(-c2cc(C(=O)N3CCC4(CC3)OCCO4)c3ccccc3n2)cc1 | inconclusive: 10 µM [inhibitor, partial curve, poor fit] | 
60 | O=C(O)CC1OCC=C2CN3CCC45C6=CC(=O)C(=O)C([N+](=O)[O-])=C6NC4C1C2CC35 (centres undefined) |  | inactive: -23.8%
61 | O=C1NC(=O)C(=Cc2cn(CCOc3ccc4c(c3)OCO4)c3ccccc23)C(=O)N1 | inconclusive: 17.8 µM [inhibitor, partial curve, poor fit] | 
62 | COc1cc(/C=C/c2nc3ccccc3c(=O)n2-c2ccccc2O)ccc1O | inconclusive: 25.1 µM [inhibitor, single point] | 
63 | c1ccc(CNCCc2c[nH]c3ccccc23)cc1 |  | inactive: -8.15%
64 | C[C@]12CC[C@@H](O)CC1=CCC1C2CC[C@]2(C)C(=O)[C@H](F)CC12 (some centres undefined) |  | inactive: 0.99%
65 | Cc1cc(C(=O)OCC(=O)Nc2ccccc2F)c(C)n1C1CC1 | inconclusive: 35.5 µM [inhibitor, single point] | 
66 | Cc1cc(/C=C2\C(=O)NC(=O)N(Cc3ccco3)C2=O)c(C)n1-c1ccc(O)cc1 |  | inactive: -21.7%
67 | CCC1(c2ccc(-c3ccccc3)cc2)C(=O)NC(=O)NC1=O | inconclusive: 6.31 µM [inhibitor, single point] | 
68 | COc1cc(/C=C2\C(=O)NC(=O)N(c3ccccc3)C2=O)cc(OC)c1O |  | inactive: -17.1%
69 | CCN(CC)c1ccc(/C=C2\C(=O)NC(=S)N(c3ccc(OC)cc3OC)C2=O)o1 | active: 11.2 µM | 

3 compounds from above, ordered by molar mass, rising:
Row | Structure (SMILES) | Potency | activity, negative = active
55 | Cn1ncnc2c(=O)n(C)c(=O)nc1-2 |  | inactive: 0.56%
48 | Cc1cccc(CN2CCCC(C(=O)c3ccc(C(F)(F)F)cc3)C2)n1 (centres undefined) | inconclusive: 35.5 µM [inhibitor, single point] | 
53 | COC(=O)C1=C(c2cccc(OCc3ccccc3)c2)C[C@@H]2CC[C@H]1N2C(=O)NCc1ccc2[nH]ccc2c1 |  | inactive: 5.15%

Look-ups from the results shown.
activity, negative = active, O=C(O)CC1OCC=C2CN3CCC45C6=CC(=O)C(=O)C([N+](=O)[O-])=C6NC4C1C2CC35 (centres undefined) is entered as inactive: -23.8%
activity, negative = active, O=C(COc1ccc(Br)cc1)N1CCN(Cc2ccc3c(c2)OCO3)CC1 is entered as inactive: 5.82%
Potency, Cc1cccc(CN2CCCC(C(=O)c3ccc(C(F)(F)F)cc3)C2)n1 (centres undefined) is entered as inconclusive: 35.5 µM [inhibitor, single point]

From PubChem BioAssay AID602313 (National Center for Advancing Translational Sciences (NCATS), 2012)
